Reference: article PMC8021557
No constants are given. Whether binding was seen depends on the method and setting. Binding can be weak; no strength is given. For some assays here: In cells and extracts the contact can be indirect. For some assays here: Tags and fused reporters may be left off the sequences shown.

Assays:
[1] = molecular target: GST-SMG7 N-terminal fragment containing the 14-3-3 domain (human (cDNA from HCT116 cells)); test: pull-down; GST and GST-SMG7 fragments on glutathione agarose incubated with lysates from 293FT cells transiently expressing HA-RAD17, overnight at 4 °C; BC100 washes; western blot with α-RAD17; only the target purified
[2] = molecular target: GST-SMG7 C-terminal LCR fragment (human (cDNA from HCT116 cells)); test: as above
[3] = molecular target: GST-SMG7 N-terminal fragment containing the 14-3-3 domain (human (cDNA from HCT116 cells)); test: pull-down; GST or GST-SMG7 fragments on glutathione agarose incubated with purified FH-RAD17 or FH-RAD17-S635A, overnight at 4 °C; BC100 washes; western blot with α-RAD17 and α-RAD17-pS635; both purified
[4] = molecular target: GST-SMG7 C-terminal LCR fragment (human (cDNA from HCT116 cells)); test: as above

Row | binding [1] | binding [2] | binding [3] | binding [4] | Binder
1 | binds | binds |  |  | HA-RAD17, expressed in 293FT cells (protein, UniProt O75943-2 1-670) MNQVTDWVDPSFDDFLECSGVSTITATSLGVNNSSHRRKNGPSTLESSRFPARKRGNLSSLEQIYGLENSKEYLSENEPWVDKYKPETQHELAVHKKKIEEVETWLKAQVLERQPKQGGSILLITGPPGCGKTTTLKILSKEHGIQVQEWINPVLPDFQKDDFKGMFNTESSFHMFPYQSQIAVFKEFLLRATKYNKLQMLGDDLRTDKKIILVEDLPNQFYRDSHTLHEVLRKYVRIGRCPLIFIISDSLSGDNNQRLLFPKEIQEECSISNISFNPVAPTIMMKFLNRIVTIEANKNGGKITVPDKTSLELLCQGCSGDIRSAINSLQFSSSKGENNLRPRKKGMSLKSDAVLSKSKRRKKPDRVFENQEVQAIGGKDVSLFLFRALGKILYCKRASLTELDSPRLPSHLSEYERDTLLVEPEEVVEMSHMPGDLFNLYLHQNYIDFFMEIDDIVRASEFLSFADILSGDWNTRSLLREYSTSIATRGVMHSNKARGYAHCQGGGSSFRPLHKPQWFLINKKYRENCLAAKALFPDFCLPALCLQTQLLPYLALLTIPMRNQAQISFIQDIGRLPLKRHFGRLKMEALTDREHGMIDPDSGDEAQLNGGHSAEESLGEPTQATVPETWSLPLSQNSASELPASQPQPFSAQGDMEENIIIEDYESDGT
2 |  |  | binds | binds | FH-RAD17 protein purified from transfected 293FT cells (protein, UniProt O75943-2 1-670, phosphoserine at S635 (readily phosphorylated on S635 when expressed in cells)) MNQVTDWVDPSFDDFLECSGVSTITATSLGVNNSSHRRKNGPSTLESSRFPARKRGNLSSLEQIYGLENSKEYLSENEPWVDKYKPETQHELAVHKKKIEEVETWLKAQVLERQPKQGGSILLITGPPGCGKTTTLKILSKEHGIQVQEWINPVLPDFQKDDFKGMFNTESSFHMFPYQSQIAVFKEFLLRATKYNKLQMLGDDLRTDKKIILVEDLPNQFYRDSHTLHEVLRKYVRIGRCPLIFIISDSLSGDNNQRLLFPKEIQEECSISNISFNPVAPTIMMKFLNRIVTIEANKNGGKITVPDKTSLELLCQGCSGDIRSAINSLQFSSSKGENNLRPRKKGMSLKSDAVLSKSKRRKKPDRVFENQEVQAIGGKDVSLFLFRALGKILYCKRASLTELDSPRLPSHLSEYERDTLLVEPEEVVEMSHMPGDLFNLYLHQNYIDFFMEIDDIVRASEFLSFADILSGDWNTRSLLREYSTSIATRGVMHSNKARGYAHCQGGGSSFRPLHKPQWFLINKKYRENCLAAKALFPDFCLPALCLQTQLLPYLALLTIPMRNQAQISFIQDIGRLPLKRHFGRLKMEALTDREHGMIDPDSGDEAQLNGGHSAEESLGEPTQATVPETWSLPLSQNSASELPASQPQPFSAQGDMEENIIIEDYESDGT
3 |  |  |  | binds | FH-RAD17-S635A protein purified from transfected 293FT cells (protein, UniProt O75943-2 1-670) MNQVTDWVDPSFDDFLECSGVSTITATSLGVNNSSHRRKNGPSTLESSRFPARKRGNLSSLEQIYGLENSKEYLSENEPWVDKYKPETQHELAVHKKKIEEVETWLKAQVLERQPKQGGSILLITGPPGCGKTTTLKILSKEHGIQVQEWINPVLPDFQKDDFKGMFNTESSFHMFPYQSQIAVFKEFLLRATKYNKLQMLGDDLRTDKKIILVEDLPNQFYRDSHTLHEVLRKYVRIGRCPLIFIISDSLSGDNNQRLLFPKEIQEECSISNISFNPVAPTIMMKFLNRIVTIEANKNGGKITVPDKTSLELLCQGCSGDIRSAINSLQFSSSKGENNLRPRKKGMSLKSDAVLSKSKRRKKPDRVFENQEVQAIGGKDVSLFLFRALGKILYCKRASLTELDSPRLPSHLSEYERDTLLVEPEEVVEMSHMPGDLFNLYLHQNYIDFFMEIDDIVRASEFLSFADILSGDWNTRSLLREYSTSIATRGVMHSNKARGYAHCQGGGSSFRPLHKPQWFLINKKYRENCLAAKALFPDFCLPALCLQTQLLPYLALLTIPMRNQAQISFIQDIGRLPLKRHFGRLKMEALTDREHGMIDPDSGDEAQLNGGHSAEESLGEPTQATVPETWSLPLAQNSASELPASQPQPFSAQGDMEENIIIEDYESDGT
